PubChem BioAssay AID743121, NCATS | 2013

- Assay: 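Knock-downs that sensitise breast cancer cells to camptothecin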 (primary screen)
- Cell system: MDA-MB-231 cells, a human breast cancer line
- Reagent: single siRNA against human genes, 20 nM siRNA (0.8 pmol per well)
- Time to read-out: 120 h (drug added 48 h after transfection, read 72 h later)
- Treatment: camptothecin 20 nM (about EC30) for 72 h; vehicle 0.1% DMSO in parallel plates
- Read-out: 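Cell viability by ATP luminescence (CellTiter-Glo) as % of non-targeting siRNA wells, and the log2 ratio of viability without drug over viability with camptothecin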
- Direction: log2 vehicle/camptothecin viability: higher = stronger sensitisation to camptothecin; viability with camptothecin and viability without drug: higher = more viable cells
- Rule for the call: 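Active genes have an RSA gene-level p-value below 0.001, computed from the ratios of their separate siRNAs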
The deposit covers about 26,000 reagents; below is a random part of them. Over the whole deposit, 167 (0.63%) were called active. 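Calls are per gene from RSA p-values that are not deposited; an individual active-marked siRNA can sensitise only weakly.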

| Target gene | PubChem SID | log2 vehicle/camptothecin viability | viability with camptothecin (% of control) | viability without drug (% of control) | Outcome |
| --- | --- | --- | --- | --- | --- |
| EGLN3 | SID164559321 | -0.466 | 89.7 | 64.9 | inactive |
| EGLN3 | SID164559323 | -0.00189 | 65.9 | 65.8 | inactive |
| EGLN3 | SID164559325 | -0.271 | 106 | 87.8 | inactive |
| EGLN3 | SID164559326 | -0.169 | 137 | 122 | inactive |
| ETFA | SID164363810 | 0.17 | 70.4 | 79.2 | inactive |
| ETFA | SID164363812 | 0.014 | 72.3 | 73 | inactive |
| ETFA | SID164363813 | 0.392 | 11.6 | 15.3 | inactive |
| PRKCI | SID164382623 | -0.351 | 73.1 | 57.3 | inactive |
| PRKCI | SID164382625 | -0.179 | 132 | 117 | inactive |
| PRKCI | SID164382627 | -0.316 | 97.4 | 78.2 | inactive |
| PRKCI | SID164382629 | -0.219 | 49.5 | 42.5 | inactive |
| PRKAG2 | SID164473826 | -0.0849 | 105 | 98.9 | inactive |
| PRKAG2 | SID164473831 | -0.032 | 107 | 105 | inactive |
| PRKAG2 | SID164473835 | -0.345 | 72.4 | 57 | inactive |
| PRKAG2 | SID164473837 | 0.102 | 88.8 | 95.4 | inactive |
| SMAD3 | SID164374494 | 0.0432 | 90.2 | 92.9 | inactive |
| SMAD3 | SID164374495 | -0.207 | 56.3 | 48.8 | inactive |
| SMAD3 | SID164374497 | 0.0676 | 92.5 | 96.9 | inactive |
| SMAD3 | SID164374498 | 0.318 | 62.8 | 78.2 | inactive |
| PLCE1 | SID164472525 | -0.259 | 51.1 | 42.7 | inactive |
| PLCE1 | SID164472527 | -0.262 | 94.4 | 78.7 | inactive |
| PLCE1 | SID164472528 | -0.494 | 61 | 43.3 | inactive |
| PLCE1 | SID164472530 | -0.123 | 87.6 | 80.4 | inactive |
| G6PD | SID164365603 | -0.27 | 33.8 | 28 | inactive |
| G6PD | SID164365606 | 0.307 | 58.5 | 72.4 | inactive |
| G6PD | SID164365608 | 0.0702 | 23.3 | 24.4 | inactive |
| G6PD | SID164365610 | -0.219 | 82.2 | 70.6 | inactive |
| COL11A2 | SID164359236 | 0.326 | 33.9 | 42.4 | inactive |
| COL11A2 | SID164359243 | -0.0513 | 55.9 | 53.9 | inactive |
| COL11A2 | SID164359247 | -0.371 | 21.2 | 16.4 | inactive |
| TOP1MT | SID164563089 | -0.158 | 95.1 | 85.3 | inactive |
| TOP1MT | SID164563090 | 0.175 | 59.2 | 66.9 | inactive |
| TOP1MT | SID174316081 | 0.313 | 58.6 | 72.7 | inactive |
| GOSR1 | SID164404336 | 0.17 | 55.7 | 62.7 | inactive |
| GOSR1 | SID164404337 | -0.173 | 116 | 103 | inactive |
| GOSR1 | SID164404339 | -0.0362 | 51.4 | 50.1 | inactive |
| GOSR1 | SID164404342 | -0.248 | 108 | 91 | inactive |
| EGR2 | SID164362887 | 0.12 | 70.4 | 76.6 | inactive |
| EGR2 | SID164362889 | 0.0478 | 52.5 | 54.3 | inactive |
| EGR2 | SID164362891 | -0.187 | 91.1 | 80 | inactive |
| EGR2 | SID164362892 | 0.0285 | 99.7 | 102 | inactive |
| CDKL3 | SID164472899 | 0.0623 | 95.1 | 99.3 | inactive |
| CDKL3 | SID164472903 | -0.698 | 113 | 69.8 | inactive |
| CDKL3 | SID164472904 | -0.248 | 126 | 106 | inactive |
| CDKL3 | SID164472909 | -0.529 | 43.1 | 29.9 | inactive |
| CDKN1B | SID164357828 | -0.276 | 73.3 | 60.6 | inactive |
| CDKN1B | SID164357829 | -0.493 | 75.7 | 53.8 | inactive |
| CDKN1B | SID164357831 | -0.248 | 76.5 | 64.4 | inactive |
| CDKN1B | SID164357833 | 0.381 | 52.1 | 67.8 | inactive |
| SLC25A36 | SID164483390 | -0.112 | 121 | 112 | inactive |
| SLC25A36 | SID164483391 | 0.283 | 74.2 | 90.3 | inactive |
| SLC25A36 | SID164483392 | -0.193 | 55.4 | 48.5 | inactive |
| SLC25A36 | SID164483393 | 0.00502 | 77.2 | 77.5 | inactive |
| IL17F | SID164559514 | -0.292 | 87.5 | 71.5 | inactive |
| IL17F | SID164559518 | -0.0796 | 105 | 99.6 | inactive |
| IL17F | SID164559519 | -0.239 | 107 | 90.9 | inactive |
| IL17F | SID164559520 | 0.173 | 93.6 | 106 | inactive |
| RNF126 | SID164485809 | -0.368 | 69.3 | 53.7 | inactive |
| RNF126 | SID164485810 | 0.137 | 94.8 | 104 | inactive |
| RNF126 | SID164485812 | -0.197 | 110 | 96.3 | inactive |
| RNF126 | SID164485814 | -0.00544 | 96 | 95.6 | inactive |
| ESPL1 | SID164405594 | -0.301 | 85.3 | 69.2 | inactive |
| ESPL1 | SID164405595 | -0.388 | 53.4 | 40.8 | inactive |
| ESPL1 | SID164405597 | 0.255 | 39 | 46.6 | inactive |
| RETN | SID164490961 | -0.172 | 60.2 | 53.4 | inactive |
| RETN | SID164490962 | 0.355 | 59.1 | 75.6 | inactive |
| RETN | SID164490965 | -0.152 | 55.7 | 50.2 | inactive |
| RETN | SID164490967 | -0.313 | 98.1 | 78.9 | inactive |

Taken from above:
Under “Outcome”, G6PD [SID164365608] has inactive
Entry of PRKCI [SID164382629] in “viability without drug (% of control)”: 42.5
GOSR1 [SID164404339], viability with camptothecin (% of control) → 51.4
Entry of GOSR1 [SID164404342] under “Outcome”: inactive
For “Outcome”, PLCE1 [SID164472527] is entered as inactive
SMAD3 [SID164374498], viability without drug (% of control) → 78.2
